Laboratory results: paper PMC4476799, “Englerin A Agonizes the TRPC4/C5 Cation Channels to Inhibit Tumor Cell Line Proliferation” (PLoS ONE, 2015)
The source gives many values for each of these; only a part stands here.

System: cancer cell lines from the cancer cell line encyclopedia (CCLE)
Assay: Cell line profiling (CLiP) proliferation experiment
Type: cell-based
Set-up: ACTIVITY_AREA: scale not given here; AMAX: unit not given here
Procedure: Compound profiling experiment and data analysis was performed as previously described. Data was imported and plotted using the Tibco Spotfire DXP application. Lines were categorized as sensitive, intermediate and refractory as follows: Amax<-40 & Inflection Point <2 ~ Sensitive, Amax>-20 & Inflection Point >10 ~ Refractory, all else were called Intermediate. Cancer Cell line HG-U133 Plus 2 data was processed and normalized as described. […] Five sets of refractory cell lines were generated from the pool of refractory cell lines trying to match the lineage composition of the set of sensitive cell lines. The limma package was used as previously described to perform the statistical comparison.

[1] = cell line NCI-H1792 (lung, adenocarcinoma)
[2] = cell line NCI-H2073 (lung, adenocarcinoma)
[3] = cell line PE/CA-PJ41 (clone D2)
[4] = cell line RS4;11, haematopoietic_and_lymphoid_tissue, acute_lymphoblastic_B_cell_leukaemia
[5] = cell line RT-112, urinary_tract, transitional_cell_carcinoma

CC(C)[C@@]12C[C@@H](O)[C@@](C)(O1)[C@@H]1CC[C@@H](C)[C@H]1[C@@H]2OC(=O)/C=C/c1ccccc1 [Englerin B]
AMAX (cell line NCI-H1781 (lung)): -63.31 | RESPONSE (cell line NCI-H1781 (lung)): INTERMEDIATE | ACTIVITY_AREA [1]: 40.56 | AMAX [1]: -58.43 | RESPONSE [1]: INTERMEDIATE | ACTIVITY_AREA (cell line NCI-H1793): 61.94 | AMAX (cell line NCI-H1793): -45.66 | RESPONSE (cell line NCI-H1793): INTERMEDIATE | ACTIVITY_AREA (cell line NCI-H1944): 49.5 | AMAX (cell line NCI-H1944): -75.02 | RESPONSE (cell line NCI-H1944): INTERMEDIATE | ACTIVITY_AREA (cell line NCI-H2023): 80.88 | AMAX (cell line NCI-H2023): -75.61 | RESPONSE (cell line NCI-H2023): INTERMEDIATE | ACTIVITY_AREA [2]: 37.97 | AMAX [2]: -56.11 | RESPONSE [2]: INTERMEDIATE | ACTIVITY_AREA (cell line NCI-H2106): 11.07 | AMAX (cell line NCI-H2106): -48.52 | RESPONSE (cell line NCI-H2106): INTERMEDIATE | ACTIVITY_AREA (cell line NCI-H2122): 59.74 | AMAX (cell line NCI-H2122): -36.73 | RESPONSE (cell line NCI-H2122): INTERMEDIATE | ACTIVITY_AREA (cell line NCI-H2170): 17.29 | AMAX (cell line NCI-H2170): -44.7 | RESPONSE (cell line NCI-H2170): INTERMEDIATE | ACTIVITY_AREA (cell line NCI-H2172): 44.13 | AMAX (cell line NCI-H2172): -55.3 | RESPONSE (cell line NCI-H2172): INTERMEDIATE | ACTIVITY_AREA (cell line NCI-H2330): 44.98 | AMAX (cell line NCI-H2330): -45.58 | RESPONSE (cell line NCI-H2330): INTERMEDIATE | ACTIVITY_AREA (cell line NCI-H2405): 32.39 | AMAX (cell line NCI-H2405): -42.88 | RESPONSE (cell line NCI-H2405): INTERMEDIATE | ACTIVITY_AREA (cell line NCI-H2452): 32.7 | AMAX (cell line NCI-H2452): -2.13 | RESPONSE (cell line NCI-H2452): REFRACTORY | ACTIVITY_AREA (cell line OC 316): 40.59 | AMAX (cell line OC 316): -6.47 | RESPONSE (cell line OC 316): REFRACTORY | ACTIVITY_AREA (cell line OMM2.3): 18.16 | AMAX (cell line OMM2.3): -44.55 | RESPONSE (cell line OMM2.3): INTERMEDIATE | RESPONSE (cell line OMM2.5): REFRACTORY | RESPONSE (cell line ONCO-DG-1): INTERMEDIATE | RESPONSE (cell line OS-RC-2): INTERMEDIATE | ACTIVITY_AREA (cell line OUMS-23): 39.54 | AMAX (cell line OUMS-23): -76.24 | RESPONSE (cell line OUMS-23): INTERMEDIATE | ACTIVITY_AREA (cell line OV7): 174.64 | AMAX (cell line OV7): -34.89 | RESPONSE (cell line OV7): INTERMEDIATE | ACTIVITY_AREA (cell line OV56): 34.53 | AMAX (cell line OV56): -42.75 | RESPONSE (cell line OV56): INTERMEDIATE | ACTIVITY_AREA (cell line OV-90): 32.55 | AMAX (cell line OV-90): -42.84 | RESPONSE (cell line OV-90): INTERMEDIATE | ACTIVITY_AREA (cell line OVCAR-4): 59.14 | AMAX (cell line OVCAR-4): -50.24 | RESPONSE (cell line OVCAR-4): INTERMEDIATE | ACTIVITY_AREA (cell line OVCAR-8): 57.78 | AMAX (cell line OVCAR-8): -69.26 | RESPONSE (cell line OVCAR-8): INTERMEDIATE | ACTIVITY_AREA (cell line OVISE): 51.17 | AMAX (cell line OVISE): -68.44 | RESPONSE (cell line OVISE): INTERMEDIATE | ACTIVITY_AREA (cell line OVSAHO): 17.26 | AMAX (cell line OVSAHO): -60.32 | RESPONSE (cell line OVSAHO): INTERMEDIATE | ACTIVITY_AREA (cell line P3HR-1): 71.41 | AMAX (cell line P3HR-1): -54.24 | RESPONSE (cell line P3HR-1): INTERMEDIATE | ACTIVITY_AREA (cell line P12-ICHIKAWA): 32.54 | AMAX (cell line P12-ICHIKAWA): -67.41 | RESPONSE (cell line P12-ICHIKAWA): INTERMEDIATE | ACTIVITY_AREA (cell line P31/FUJ): 32.81 | AMAX (cell line P31/FUJ): -79.81 | RESPONSE (cell line P31/FUJ): INTERMEDIATE | ACTIVITY_AREA (cell line PA-TU-8988S): 32.08 | AMAX (cell line PA-TU-8988S): -57.5 | RESPONSE (cell line PA-TU-8988S): INTERMEDIATE | ACTIVITY_AREA (cell line PANC-1): 38.24 | AMAX (cell line PANC-1): -57.06 | RESPONSE (cell line PANC-1): INTERMEDIATE | ACTIVITY_AREA (cell line PC-3): 27.62 | AMAX (cell line PC-3): -56.65 | RESPONSE (cell line PC-3): INTERMEDIATE | ACTIVITY_AREA (cell line PC-14): 53.2 | AMAX (cell line PC-14): -60.86 | RESPONSE (cell line PC-14): INTERMEDIATE | ACTIVITY_AREA [3]: 24.88 | AMAX [3]: -57.93 | RESPONSE [3]: INTERMEDIATE | ACTIVITY_AREA (cell line PEER): 70.62 | AMAX (cell line PEER): -84.18 | RESPONSE (cell line PEER): INTERMEDIATE | ACTIVITY_AREA (cell line PF-382): 21.49 | AMAX (cell line PF-382): -65.49 | RESPONSE (cell line PF-382): INTERMEDIATE | ACTIVITY_AREA (cell line PL-21): 24.72 | AMAX (cell line PL-21): -72.2 | RESPONSE (cell line PL-21): INTERMEDIATE | ACTIVITY_AREA (cell line PLC/PRF/5): 81.8 | AMAX (cell line PLC/PRF/5): -62.62 | RESPONSE (cell line PLC/PRF/5): INTERMEDIATE | ACTIVITY_AREA (cell line PSN1): 48.4 | AMAX (cell line PSN1): -50.26 | RESPONSE (cell line PSN1): INTERMEDIATE | ACTIVITY_AREA (cell line Panc 02.03): 33.74 | AMAX (cell line Panc 02.03): -6.12 | RESPONSE (cell line Panc 02.03): REFRACTORY | ACTIVITY_AREA (cell line Panc 03.27): 32.48 | AMAX (cell line Panc 03.27): -68.65 | RESPONSE (cell line Panc 03.27): INTERMEDIATE | ACTIVITY_AREA (cell line Panc 04.03): 25.22 | AMAX (cell line Panc 04.03): -42.01 | RESPONSE (cell line Panc 04.03): INTERMEDIATE | ACTIVITY_AREA (cell line Panc 10.05): 44.86 | AMAX (cell line Panc 10.05): -68.86 | RESPONSE (cell line Panc 10.05): INTERMEDIATE | ACTIVITY_AREA (cell line RCC10RGB): 23.96 | AMAX (cell line RCC10RGB): -33.3 | RESPONSE (cell line RCC10RGB): INTERMEDIATE | ACTIVITY_AREA (cell line RCH-ACV): 21.26 | AMAX (cell line RCH-ACV): -65 | RESPONSE (cell line RCH-ACV): INTERMEDIATE | ACTIVITY_AREA (cell line RD): 44.05 | AMAX (cell line RD): -26.78 | RESPONSE (cell line RD): INTERMEDIATE | ACTIVITY_AREA (cell line REC-1): 20.74 | AMAX (cell line REC-1): -85.12 | RESPONSE (cell line REC-1): INTERMEDIATE | ACTIVITY_AREA (cell line RERF-LC-AI): 24.39 | AMAX (cell line RERF-LC-AI): -47.09 | RESPONSE (cell line RERF-LC-AI): INTERMEDIATE | ACTIVITY_AREA (cell line RH-18): 79.38 | AMAX (cell line RH-18): -16.44 | RESPONSE (cell line RH-18): REFRACTORY | ACTIVITY_AREA (cell line RH-41): 42.17 | AMAX (cell line RH-41): -95.73 | RESPONSE (cell line RH-41): INTERMEDIATE | ACTIVITY_AREA (cell line RI-1): 98.96 | AMAX (cell line RI-1): -92.55 | RESPONSE (cell line RI-1): INTERMEDIATE | ACTIVITY_AREA (cell line RKN): 25.89 | AMAX (cell line RKN): -49.43 | RESPONSE (cell line RKN): INTERMEDIATE | ACTIVITY_AREA (cell line RKO): 25.58 | AMAX (cell line RKO): -79.57 | RESPONSE (cell line RKO): INTERMEDIATE | ACTIVITY_AREA (cell line RL): 38.44 | AMAX (cell line RL): -90.86 | RESPONSE (cell line RL): INTERMEDIATE | ACTIVITY_AREA (cell line RMUG-S): 7.3 | AMAX (cell line RMUG-S): 2.82 | RESPONSE (cell line RMUG-S): REFRACTORY | ACTIVITY_AREA (cell line RPMI 8226): 43 | AMAX (cell line RPMI 8226): -80.8 | RESPONSE (cell line RPMI 8226): INTERMEDIATE | ACTIVITY_AREA (cell line RPMI-7951): 38.85 | AMAX (cell line RPMI-7951): -60.36 | RESPONSE (cell line RPMI-7951): INTERMEDIATE | ACTIVITY_AREA (cell line RPMI-8402): 70.19 | AMAX (cell line RPMI-8402): -61.1 | RESPONSE (cell line RPMI-8402): INTERMEDIATE | ACTIVITY_AREA [4]: 34.25 | AMAX [4]: -73.99 | RESPONSE [4]: INTERMEDIATE | ACTIVITY_AREA [5]: 66.59 | AMAX [5]: -78.07
